Reference: patent US20160235836A1 (LOS ALAMOS NATIONAL SECURITY LC TAS, published 2016)

Molecular target: T1, CD4 (UniProt P01730 26-396)
T1 construct: also called sCD4
Test: SPR, single-shot kinetics

B1: Mmos3.3 gp120 (global mosaic HIV Env protein) (other)
chain: SDNLWVTVYYGVPVWRDADTTLFCASDAKAYDTEVHNVWATHACVPTDPNPQEIHLENVTENFNMWKNNMVEQMQEDVISLWDQSLKPCVKLTPLCVTLNCTKANLTNINETTASNGIGNITDEVRNCSFNMTTLLSDKKRLVHALFYKLDIVPIKDNQNSSVSSGEYRLINCNTSVIKQACPKVTFDPIPIHYCTPAGYAILKCNDKNFNGTGPCKNVSSVQCTHGIKPVVSTQLLLNGSLAEEEIIIRSENLTNNAKTIIVHLNKSVEINCTRPSNNTRTSVRIGPGQVFYRTGDIIGDIRQAYCEINGTKWNETLRQVAKKLKEHFNKTIIFQPPSGGDLEITMHHFNCRGEFFYCNTTKLFNSTWIGNETMVEGNNNDTIILPCRIKQIINMWQGVGQAMYAPPISGIINCVSNITGILLTRDGGSGDNATETFRPGGGNIKDNWRSELYKYKVVEIEPLGIAPTKAKRRVVEREKR
  Kd: 8.4 nM
